According to patent US20230203098A1, “HUMAN TRANSFERRIN RECEPTOR BINDING PEPTIDE” (priority 2020, published 2023):
These are yes or no findings as the source states them, for the method shown. Some entries that bind do so weakly or less than the wild type. For part of these data: Tags and fused reporters may be left off the sequences shown.

B1: 894_3_5m_PEG04_K(Mal) (peptide)
peptide: AVFVWNYYIIRRYYC
modifications: 3 MePhe; 5 MeTrp; 14 MeTyr; C-term PEG4c-K(Maleimide)-Cys; cyclic 1-15 thioether
B2: 894_3_5m_PEG08_K(Mal) (peptide)
peptide: AVFVWNYYIIRRYYC
modifications: 3 MePhe; 5 MeTrp; 14 MeTyr; C-term PEG8c-K(Maleimide)-Cys; cyclic 1-15 thioether
B3: 894_3m_PEG4_KFITC (peptide)
peptide: AVFVWNYYIIRRYYC
modifications: 3 MeF; 14 MeY; C-term PEG4c-dk-FITC (5-FAM in paragraph 405); cyclic 1-15 thioether

How the values were obtained:
[1] = molecular target: human transferrin receptor (hTfR) (human) (UniProt P02786); experiment: SPR; grade B: KD >=1 nM, <100 nM
[2] = molecular target: human transferrin receptor (hTfR) (human) (UniProt P02786); experiment: SPR; grade A: KD <1 nM
[3] = molecular target: human transferrin receptor (hTfR) (human) (UniProt P02786); experiment: SPR; grade C: KD >=100 nM, <1 uM
[4] = molecular target: human transferrin receptor (hTfR) (human) (UniProt P02786); experiment: SPR
[5] = molecular target: human transferrin receptor (hTfR) (human) (UniProt P02786); experiment: SPR, hTfR immobilised
[6] = molecular target: human transferrin receptor (hTfR) (human) (UniProt P02786); experiment: SPR in the same manner as in Example 2

Binder	binding [1]	also measured
AVFVWNYYIIRRYYC (5 MeTrp; 14 MeTyr; C-term G-S-S-G-S-S-K(Maleimide)-Cys; cyclic 1-15 thioether) [894_5m_GSSGSS_K(Mal)]	binds	
AVFVWNYYIIRRYYC (3 MePhe; 14 MeTyr; C-term G-G-S-G-E-S-K(Maleimide)-Cys; cyclic 1-15 thioether) [894_3m_GGSGES_K(Mal)]	binds	
AVFVWNYYIIKRYYC (3 MePhe; 5 MeTrp; 14 MeTyr; C-term PEG12c-dc(MalFITC); cyclic 1-15 thioether) [894_v04_PEG12_C_Mal(FITC)]	binds	
AVFVWNYYIIRRYYC (3 MePhe; 14 MeTyr; C-term K(Maleimide)-Cys; cyclic 1-15 thioether) [894_3m_K(Mal)]	binds	
AVFVWNYYIIRRYYC (3 MePhe; 14 MeTyr; C-term PEG4c-PEG4c-K(Maleimide)-Cys; cyclic 1-15 thioether) [894_3m_PEG4_PEG4_K(Mal)]		binding [2]: binds
AVFVWNYYIVGRNVPNC (15 printed 'pro'; C-term PEG11-K(FITC); cyclic 1-17 thioether) [JCR_hTfR_100025_PEG11_K(FITC)]		binding [2]: binds
AVFVWNYYIIRRYYC (3 MeF; 14 MeY; C-term G-G-G-de-G-de-G-dk(Maleimide); cyclic 1-15 thioether) [894_3rn_Linke03_dk(Mal)]	binds	
AVFVWNYYIIDRFRSHC (16 MeHis; C-term PEG11-K(FITC); cyclic 1-17 thioether) [JCR_hTfR_000812_PEG11_K(FITC)]	binds	
AVFVWNYYIIRRYYC (14 MeTyr; C-term PEG4c-Dap(FITC); cyclic 1-15 thioether) [SP01_hTfR_894_FITC]	binds	
AVFVWNYYIIDRFRSYC (16 MeTyr; C-term PEG11-K(FITC); cyclic 1-17 thioether) [JCR_hTfR_000895_PEG11_K(FITC)]	binds	
AVFVWNYYIIKRYYC (3 MeF; 14 MeY; C-term G-K; cyclic 1-15 thioether) [894_variant_219]	binds	
AVFVWNYYIIRRYYC (3 MeF; 14 MeY; C-term G-PEG4c-KN3; cyclic 1-15 thioether) [894_3rn_G_short_Azi]	binds	
AVFVWNYYIIRRFYC (C-term G-G-S-G-S-G-K(Maleimide)-C; cyclic 1-15 thioether) [894_v157_K(Mal)]		binding [3]: binds
ANRIVFVWNYYIIPRHC (14 printed 'pro'; 16 MeHis; C-term PEG11-K(FITC); cyclic 1-17 thioether) [JCR_hTfR_000809_PEG11_K(FITC)]	binds	
AVFVWNYYIIRRYYC (3 MeF; 14 MeY; C-term G-PEG12c-KN3; cyclic 1-15 thioether) [894_3m_G_long_Azi]	binds	
AVFVWNYYIIRRYEC (3 MePhe; C-term PEG12c; cyclic 1-15 thioether) [894_3m_14E]		binding [3]: binds
AVFVWNYYIIRRYYC (3 MePhe; 14 MeTyr; C-term G-G-S-S-K(Maleimide)-Cys; cyclic 1-15 thioether) [894_3m_GGSS_K(Mal)]	binds	
AVFVWNYYIIEAYYC (14 MeY; cyclic 1-15 thioether) [JCR_hTfR_000894_E11A12]		binding [3]: binds
AVFVWNYYIIKRYYC (5 MeTrp; 14 MeTyr; C-term PEG4c-dc(MalFITC); cyclic 1-15 thioether) [894_v07_PEG4_C_Mal(FITC)]	binds	
AVFVWNYYIIRRYYC (3 MePhe; 14 MeTyr; C-term G-G-G-S-S-K(Maleimide)-Cys; cyclic 1-15 thioether) [894_3m_GGGSS_K(Mal)]	binds	
AVFVWAYYIIRRYYC (3 MePhe; 14 MeTyr; C-term PEG12c; cyclic 1-15 thioether) [894_3m_6A]		binding [3]: binds

Binder	binding [1]	also measured
AVFVWHYYIIRRYYC (3 MeF; 14 MeY; cyclic 1-15 thioether) [894_3m_6H]		binding [3]: binds
AVFVWNYYIIRRYYC (14 MeTyr; cyclic 1-15 thioether (chloroacetyl-Ala1 to Cys15)) [hTfR No. 894]		binding [4]: binds; binding [5]: binds
AVFVWNYYIIRRYYC (3 MeF; 14 MeY; C-term G-K; cyclic 1-15 thioether) [894_variant_218]	binds	
FVFVWNYYIIRRYYC (3 MePhe; 14 MeTyr; C-term PEG12c; cyclic 1-15 thioether) [894_3m_1F]		binding [3]: binds
ANRIVFVWNYYIIPRYC (14 printed 'pro'; 16 MeTyr; C-term PEG11-K(FITC); cyclic 1-17 thioether) [JCR_hTfR_000696_PEG11_K(FITC)]	binds	
AVFVWNYYIIRRYYC (3 MePhe; 14 MeTyr; C-term PEG4c-Dap(FITC); cyclic 1-15 thioether) [SP18_hTfR_894_03(me)_FITC]	binds	
AVFVWNYYIIRRYYC (11 MeArg; 14 MeTyr; C-term PEG4c-Dap(FITC); cyclic 1-15 thioether) [SP26_hTfR_894_11(me)_FITC]	binds	
AVFVWNYYIVHC (C-term PEG11-K-FITC; cyclic 1-12 thioether) [JCR_hTfR_100003_PEG11_K(FITC)]		binding [3]: binds
B1	binds	
AVFVWNYYIIKRYYC (3 MePhe; 5 MeTrp; 14 MeTyr; C-term PEG4c-dc(MalFITC); cyclic 1-15 thioether) [894_v04_PEG4_C_Mal(FITC)]	binds	
AVFVWNYYIIRRYYC (5 MeTrp; 14 MeTyr; C-term PEG12c-dc(MalFITC); cyclic 1-15 thioether) [894_v06_PEG12_C_Mal(FITC)]	binds	
AVFVWNYYIIRRYYC (14 MeTyr; C-term PEG11-K(FITC); cyclic 1-15 thioether) [JCR_hTfR_000894_PEG11_K(FITC)]		binding [2]: binds
AVFVWNYYIIRRYYC (1 MeAla; 14 MeTyr; C-term PEG4c-Dap(FITC); cyclic 1-15 thioether) [SP16_hTfR_894_01(me)_FITC]	binds	
AVFVWNYYIIRRYYC (3 MePhe; 14 MeTyr; C-term PEG12c-dc(MalFITC); cyclic 1-15 thioether) [894_v01_PEG12_C_Mal(FITC)]	binds	
AVFVWNYYIIRRYYC (14 MeTyr; C-term PEG12 (text: PEG11)-K(VivoTag); cyclic 1-15 thioether) [hTfR_000894_PEG11_(VivoTag)]	binds	
B2	binds	
AVFVWNYYIKRRYYC (14 MeY; cyclic 1-15 thioether) [JCR_hTfR_000894_K10]		binding [2]: binds
AVFVWNYYIVDRFGTGC (C-term PEG11-K(FITC); cyclic 1-17 thioether) [JCR_hTfR_100022_PEG11_K(FITC)]		binding [2]: binds
AVFVWNYYIIRRYYC (3 MePhe; 14 MeTyr; C-term G-G-S-G-S-S-K(Maleimide)-Cys; cyclic 1-15 thioether) [S94_3m_GGSGSS_K(Mal)]	binds	
ANSRTVWVWNYYIVTRC (C-term PEG11-K(FITC); cyclic 1-17 thioether) [JCR_hTfR_100017_PEG11_K(FITC)]	binds	
AVFGWNYYIIRRYYC (3 MePhe; 14 MeTyr; C-term PEG12c; cyclic 1-15 thioether) [894_3m_4G]		binding [3]: binds

Binder	binding [1]	also measured
AVFVWNYYIIRRYYC (3 MePhe; 5 MeTrp; 14 MeTyr; C-term PEG12c-dc(MalFITC); cyclic 1-15 thioether) [894_v03_PEG12_C_Mal(FITC)]	binds	
AVFVWNYYIIRRYYC (3 MePhe; 14 MeTyr; C-term G-G-K(Maleimide)-Cys; cyclic 1-15 thioether) [894_3m_GG_K(Mal)]	binds	
AVFVWNYYIIRRYYC (3 MeF; 14 MeY; C-term G-de-de-de-de-S-C(AcNMe); cyclic 1-15 thioether) [894_3rn_GLinker24]	binds	
AVFVWNYYIIRRYYC (5 MeTrp; 14 MeTyr; C-term PEG4c-Dap(FITC); cyclic 1-15 thioether) [SP20_hTfR_894_05(me)_FITC]	binds	
B3		binding [2]: binds; binding [6]: binds
AVFVWNYYIIKRYYC (3 MePhe; 14 MeTyr; C-term PEG12c-dc(MalFITC); cyclic 1-15 thioether) [894_v02_PEG12_C_Mal(FITC)]	binds	
AVFVWNYYIIRRYYC (3 MeF; 14 MeY; C-term G-G-G-S-G-S-G-dk(Maleimide); cyclic 1-15 thioether) [894_3rn_Linke01_dk(Mal)]	binds	
AVFVWNYYIIRRYYC (3 MePhe; 14 MeTyr; C-term G-K(Maleimide)-Cys; cyclic 1-15 thioether) [894_3m_G_K(Mal)]	binds	
AVFVWNRYIIRRYYC (3 MePhe; 14 MeTyr; C-term PEG12c; cyclic 1-15 thioether) [894_3m_7R]	binds	
AVFVWNYYIIRRYYC (5 MeW; 14 MeY; cyclic 1-15 thioether) [894_5m]		binding [2]: binds
AVFVWNYYIIKRYYC (14 MeY; cyclic 1-15 thioether) [JCR_hTfR_000894_K11]		binding [2]: binds
AVFVWNYYIIRRYYC (3 MePhe; 14 MeTyr; C-term G-G-S-K(Maleimide)-Cys; cyclic 1-15 thioether) [894_3m_GGS_K(Mal)]	binds	
ASAVFVWNYYIINRWAC (C-term PEG11-K(FITC); cyclic 1-17 thioether) [JCR_hTfR_100014_PEG11_K(FITC)]	binds	
AVFVWNYYIIKRYYC (5 MeTrp; 14 MeTyr; C-term PEG12c-dc(MalFITC); cyclic 1-15 thioether) [894_v07_PEG12_C_Mal(FITC)]	binds	
AVFAWNYYIIRRYYC (3 MePhe; 14 MeTyr; C-term PEG12c; cyclic 1-15 thioether) [894_3m_4A]		binding [3]: binds
AVFVWNYYIIRRYYC (14 MeTyr; C-term PEG12c-dc(MalFITC); cyclic 1-15 thioether) [894_v00_PEG12_C_Mal(FITC)]	binds	
AVFSWNYYIIRRYYC (3 MePhe; 14 MeTyr; C-term PEG12c; cyclic 1-15 thioether) [894_3m_4S]		binding [3]: binds
AVFVWNYYIIRRYYC (5 MeW; 14 MeY; C-term PEG4c; cyclic 1-15 thioether) [894_5m_PEG04]		binding [2]: binds
AVFVWNYYIIDRFRC (C-term PEG11-K(FITC); cyclic 1-15 thioether) [JCR_hTfR_000690_PEG11_K(FITC)]	binds	
